According to article PMC8698616:

Assays:
[1] = molecular target: T1, LEA29 (Arabidopsis thaliana (Col-0)) (UniProt Q9LW12); test: split reporter; 2in1 ratiometric BiFC (rBiFC, vector pBiFCt-2in1-CC) in N. benthamiana leaves, 4 d after Agrobacterium infiltration with p19; confocal microscopy; relative YFP/RFP fluorescence ratio with cut-off above 80% (n = 15-25); LEA gene at the attR1-R4 site alone as negative control
T1 sequence: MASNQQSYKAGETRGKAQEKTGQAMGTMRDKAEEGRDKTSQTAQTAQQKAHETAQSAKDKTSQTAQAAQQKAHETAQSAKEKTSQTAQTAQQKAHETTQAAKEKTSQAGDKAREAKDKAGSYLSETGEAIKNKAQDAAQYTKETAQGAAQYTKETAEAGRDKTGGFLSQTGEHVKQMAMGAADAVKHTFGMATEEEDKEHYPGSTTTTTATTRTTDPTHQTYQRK

[2] = molecular target: T2, LEA7 (Arabidopsis thaliana (Col-0)) (UniProt Q96270); test: as above
T2 sequence: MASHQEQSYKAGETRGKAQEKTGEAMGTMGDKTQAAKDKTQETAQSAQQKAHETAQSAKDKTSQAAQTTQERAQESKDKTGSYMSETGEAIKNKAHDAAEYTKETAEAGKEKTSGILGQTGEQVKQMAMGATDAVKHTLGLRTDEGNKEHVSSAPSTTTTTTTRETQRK

With LEA28 (Arabidopsis thaliana (Col-0)) the binding [1] was “no binding” and the binding [2] was “no binding”.

Results are given in words; binding and its absence hold for the method and conditions named. In cells and extracts the contact can be indirect.
